Experimental data published in US20220411514A1, “ANTI-GAL3 ANTIBODIES AND METHODS OF USE FOR INSULIN RESISTANCE” (TrueBinding, Inc., priority 2021, published 2022).
Results are given in words; binding and its absence hold for the method and conditions named. Some entries that bind do so weakly or less than the wild type.

The chains behind the UniProt entries cited, without tags or fusion partners. Where a name states a change or a piece, a line headed by the entry shows the natural chain unless it says otherwise.
UniProt P17931: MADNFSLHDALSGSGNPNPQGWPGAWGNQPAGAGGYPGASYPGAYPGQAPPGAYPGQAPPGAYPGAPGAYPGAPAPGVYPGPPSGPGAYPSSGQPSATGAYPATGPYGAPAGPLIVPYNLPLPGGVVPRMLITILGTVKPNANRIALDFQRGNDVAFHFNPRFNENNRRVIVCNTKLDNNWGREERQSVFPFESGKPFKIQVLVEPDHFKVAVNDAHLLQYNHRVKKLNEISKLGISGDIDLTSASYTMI
UniProt P11166: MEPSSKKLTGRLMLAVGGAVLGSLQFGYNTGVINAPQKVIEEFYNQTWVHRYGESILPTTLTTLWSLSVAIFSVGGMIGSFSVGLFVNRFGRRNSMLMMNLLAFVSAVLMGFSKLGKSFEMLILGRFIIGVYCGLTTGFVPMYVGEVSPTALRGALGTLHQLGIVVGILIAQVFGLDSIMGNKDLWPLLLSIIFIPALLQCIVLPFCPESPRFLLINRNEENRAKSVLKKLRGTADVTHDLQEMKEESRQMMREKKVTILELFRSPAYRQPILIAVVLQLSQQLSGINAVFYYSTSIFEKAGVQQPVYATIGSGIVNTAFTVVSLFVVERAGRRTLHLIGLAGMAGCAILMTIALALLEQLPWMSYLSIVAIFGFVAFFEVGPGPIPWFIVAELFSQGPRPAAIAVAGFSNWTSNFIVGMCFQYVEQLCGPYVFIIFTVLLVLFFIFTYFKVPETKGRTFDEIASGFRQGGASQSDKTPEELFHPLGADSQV

Target: human Galectin-3 (Gal3) (human) (UniProt P17931)
Assay: ELISA, FLAG-tagged GLUT on coated Gal3

binding: binds
Substance: GLUT1 protein tagged with FLAG (from UniProt P11166 1-492)
